Measured values as given in PubChem BioAssay AID212 (DTP/NCI, 2004).
The list does not hold the whole screen: it gathers tests that were run many times, whatever their T/C, doses with no T/C, and many T/C values between a quarter and a half above the control. Other doses and runs of a compound stand elsewhere. T/C: endpoint of the treated group in % of that of the vehicle group. Schedules are NCI's codes, read here as Q, the interval in days (D) or hours (H), X, the number of doses. Some T/C values are followed by the survivors on the day toxicity was checked, most often the fifth; without a count, all were alive then. Some doses were run more than once; the values are given in rising order. Additions like (4×) count equal records among those shown. Some doses have a count of surviving animals in place of a T/C: the source holds a T/C of zero for them, seemingly a mark for toxic or unscored doses. Survivors were counted at the toxicity check, usually on the fifth day, unless a day is given; later deaths do not show.

System: BDF1 mice, colon carcinoma 38 sc, T/C %
Assay: NCI In Vivo Anticancer Drug Screen. Data for tumor model Colon Carcinoma 38 (subcutaneous) in B6D2F1 (BDF1) mice
Settings: T/C endpoint: median tumor weight (est.), higher T/C = larger tumour; for T/C: evaluated on day 20
Method in brief: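 T/C readout: treated group (T) measurement over vehicle control group (C) measurement. Endpoint is survival or tumor size in mice bearing a transplanted tumor.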

[1] = dose: 400.0 mg/kg/injection, schedule: Q07DX002 (ip), vehicle: saline
[2] = dose: 100.0 mg/kg/injection, schedule: Q07DX002 (ip), vehicle: saline
[3] = dose: 200.0 mg/kg/injection, schedule: Q07DX002 (ip), vehicle: water
[4] = dose: 32.0 mg/kg/injection, schedule: Q07DX002 (ip), vehicle: saline with Tween-80
[5] = dose: 64.0 mg/kg/injection, schedule: Q07DX002 (ip), vehicle: saline with Tween-80

In the case of `CCCCCn1c(C)cc(/C=C\c2ccc3cc(C)ccc3[n+]2C)c1C`, the survivor count (dose: 1.25 mg/kg/injection, schedule: Q07DX002 (ip), vehicle: Klucel (hydroxypropylcellulose) (HPC)) is reported as 6 of 10 on day 20, the survivor count (dose: 2.5 mg/kg/injection, schedule: Q07DX002 (ip), vehicle: Klucel (hydroxypropylcellulose) (HPC)) is reported as 0 of 10 on day 20 and 3 of 10 on day 20 and the survivor count (dose: 5.0 mg/kg/injection, schedule: Q07DX002 (ip), vehicle: Klucel (hydroxypropylcellulose) (HPC)) is reported as 0 of 10 on day 20 and 5 of 10 on day 20. For the same compound, the survivor count (dose: 10.0 mg/kg/injection, schedule: Q07DX002 (ip), vehicle: Klucel (hydroxypropylcellulose) (HPC)) was 0 of 10 on day 20, the survivor count (dose: 20.0 mg/kg/injection, schedule: Q07DX002 (ip), vehicle: Klucel (hydroxypropylcellulose) (HPC)) was 0 of 10 on day 20 and the T/C (dose: 300.0 micrograms/kg/injection, schedule: Q07DX002 (ip), vehicle: Klucel (hydroxypropylcellulose) (HPC)) was 138 % of control. For the same compound, the survivor count (dose: 1200.0 micrograms/kg/injection, schedule: Q07DX002 (ip), vehicle: Klucel (hydroxypropylcellulose) (HPC)) was 2 of 10 on day 20.
With `CCC(C)C(=O)O[C@H]1C(=O)O[C@@H]2C[C@H]3C(C)=CC(=O)[C@@H](O)[C@]3(C)[C@H]3[C@@H](O)[C@H](O)[C@@]4(C)OC[C@]32[C@@H]14` (stereo not given in full) the survivor count (dose: 10.0 mg/kg/injection, schedule: Q07DX002 (ip), vehicle: saline + alcohol) was 0 of 10 on day 20, 4 of 10 on day 20, 5 of 10 on day 20, the survivor count (dose: 20.0 mg/kg/injection, schedule: Q07DX002 (ip), vehicle: saline + alcohol) was 0 of 10 on day 20 and 2 of 10 on day 20 and the survivor count (dose: 40.0 mg/kg/injection, schedule: Q07DX002 (ip), vehicle: saline + alcohol) was 0 of 10 on day 20. The survivor count (dose: 80.0 mg/kg/injection, schedule: Q07DX002 (ip), vehicle: saline + alcohol) was 0 of 10 on day 20.
For `O=C(CO)c1ccc([N+](=O)[O-])cc1`, the T/C (dose: 50.0 mg/kg/injection, schedule: Q07DX002 (ip), vehicle: saline with Tween-80) was 143 % of control.
In the case of `CN(C)[C@@H]1C(=O)C(C(N)=O)=C(O)[C@@]2(O)C(=O)C3=C(O)c4c(O)ccc(Cl)c4[C@@](C)(O)[C@H]3C[C@@H]12`, the survivor count [1] is reported as 2 of 10 on day 20, the survivor count (dose: 800.0 mg/kg/injection, schedule: Q07DX002 (ip), vehicle: saline) is reported as 0 of 10 on day 20 and the survivor count (dose: 800.0 mg/kg/injection, schedule: Q07DX002 (ip), vehicle: suspension in saline) is reported as 4 of 10 on day 20.
`CSC(SC)=C1C(=O)NC(=O)NC1=O` was tested, and the survivor count [2] was 6 of 10 on day 20.
In the case of `CN(C)N=Nc1cccc(C(N)=O)c1`, the survivor count (dose: 320.0 mg/kg/injection, schedule: Q07DX002 (ip), vehicle: saline) is reported as 2 of 10 on day 20.
`C1CC[N-]CC1.[Cl][Pt+2][Cl].[NH-]C1CC1` was tested, and the T/C (dose: 6.25 mg/kg/injection, schedule: Q07DX002 (ip), vehicle: water) was 128 % of control [9 of 10 alive on day 20], the T/C (dose: 25.0 mg/kg/injection, schedule: Q07DX002 (ip), vehicle: water) was 125 % of control and the survivor count (dose: 100.0 mg/kg/injection, schedule: Q07DX002 (ip), vehicle: water) was 5 of 10 on day 20. For the same compound, the T/C [3] was 130 % of control [8 of 10 alive on day 20] and the survivor count [3] was 0 of 10 on day 20.
With `CCC1=C[C@H]2CN(CCc3c([nH]c4ccccc34)[C@@](C(=O)OC)(c3cc4c(cc3OC)N(C)[C@H]3[C@@](O)(C(=O)NC)[C@H](OC(C)=O)[C@]5(CC)C=CCN6CC[C@]43[C@@H]65)C2)C1` the T/C (dose: 0.25 mg/kg/injection, schedule: Q07DX002 (ip), vehicle: saline) was 138 % of control.
For `Nc1ncnc2c1ncn2C1OC(CO)C(O)C1O` (stereo not given), the T/C (dose: 37.5 mg/kg/injection, schedule: Q07DX002 (ip), vehicle: saline) was 127 % of control, the T/C (dose: 100.0 mg/kg/injection, schedule: Q07DX003 (ip), vehicle: saline) was 149 % of control and the survivor count (dose: 200.0 mg/kg/injection, schedule: Q07DX002 (ip), vehicle: saline) was 0 of 5. For the same compound, the T/C (dose: 200.0 mg/kg/injection, schedule: Q07DX003 (ip), vehicle: saline) was 147 % of control, the T/C (dose: 400.0 mg/kg/injection, schedule: Q07DX003 (ip), vehicle: saline) was 125 % of control [9 of 10 alive on day 20] and the T/C (dose: 600.0 mg/kg/injection, schedule: Q07DX003 (ip), vehicle: saline) was 141 % of control. The T/C (dose: 1200.0 mg/kg/injection, schedule: Q07DX002 (ip), vehicle: saline) was 136 % of control.
`CC1CCC(NC(=O)N(CCCl)N=O)CC1` (stereo not given) was tested, and the T/C (dose: 4.0 mg/kg/injection, schedule: Q07DX002 (ip), vehicle: saline with Tween-80) was 63, 82 [9 of 10 alive on day 20], 89 (2×), 89 [8 of 10 alive on day 20], 100, 112, 121, 123, 124, 135 % of control, the T/C (dose: 8.0 mg/kg/injection, schedule: Q07DX002 (ip), vehicle: saline with Tween-80) was 52 [9 of 10 alive on day 20], 59, 72 [9 of 10 alive on day 20], 76, 81, 83 [9 of 10 alive on day 20], 104 [9 of 10 alive on day 20], 110 (2×), 111, 135 % of control [9 of 10 alive on day 20] and the T/C (dose: 16.0 mg/kg/injection, schedule: Q07DX002 (ip), vehicle: saline with Tween-80) was 36, 46, 47, 63, 72 [9 of 10 alive on day 20], 76, 82, 94 [9 of 10 alive on day 20], 100, 109, 125 % of control. For the same compound, the T/C [4] was 5 [8 of 10 alive on day 20], 18 [9 of 10 alive on day 20], 19, 27 [8 of 10 alive on day 20], 39, 53 [9 of 10 alive on day 20], 56, 75 [8 of 10 alive on day 20], 82, 96 % of control [9 of 10 alive on day 20], the survivor count [4] was 5 of 10 on day 20 and the survivor count (dose: 64.0 mg/kg/injection, schedule: Q07DX002 (ip), vehicle: Klucel (hydroxypropylcellulose) (HPC)) was 3 of 10 on day 20. The T/C [5] was 4, 12 [9 of 10 alive on day 20], 41 [9 of 10 alive on day 20], 51 % of control and the survivor count [5] was 0 of 10 on day 20, 3 of 10 on day 20, 4 of 10 on day 20, 5 of 10 on day 20.
`CC(=O)OCC1(C)NC(=O)c2ccccc2O1` (stereo not given) was tested, and the T/C (dose: 12.5 mg/kg/injection, schedule: Q07DX002 (ip), vehicle: saline with Tween-80) was 125 % of control and the survivor count (dose: 1800.0 mg/kg/injection, schedule: Q07DX002 (ip), vehicle: saline with Tween-80) was 5 of 10 on day 20.
In the case of `CC1=C(O)C(=O)[C@@H]2O[C@@H]2C1=O`, the survivor count (dose: 25.0 mg/kg/injection, schedule: Q07DX002 (ip), vehicle: saline) is reported as 3 of 10 on day 20, the survivor count (dose: 50.0 mg/kg/injection, schedule: Q07DX002 (ip), vehicle: saline) is reported as 0 of 10 on day 20 and the survivor count [2] is reported as 0 of 10 on day 20.
For `CCCC[C@H]1C(=O)O[C@H](C)[C@H](NC(=O)c2cccc(NC=O)c2O)C(=O)O[C@@H](C)[C@@H]1OC(=O)CC(C)C`, the survivor count (dose: 2.0 mg/kg/injection, schedule: Q07DX002 (ip), vehicle: Klucel (hydroxypropylcellulose) (HPC)) was 5 of 10 on day 20 and the survivor count (dose: 4.0 mg/kg/injection, schedule: Q07DX002 (ip), vehicle: Klucel (hydroxypropylcellulose) (HPC)) was 2 of 10 on day 20.
In the case of `C=C(OC1C(C)=C2C(C1OC(=O)CCCCCCC)C(C)(OC(C)=O)CC(OC(=O)CCC)C1(O)C2OC(=O)C1(C)O)/C(C)=C/C` (stereo not given), the T/C (dose: 1.68 mg/kg/injection, schedule: Q07DX002 (ip), vehicle: Klucel (hydroxypropylcellulose) (HPC)) is reported as 6, 100, 117 [9 of 10 alive], 184 % of control.
With `C[N+](C)(C)c1ncnc2c1ncn2C1CCCO1` (stereo not given) the survivor count [1] was 0 of 10 on day 20.
With `Cn1/c2cc/c1=C(\c1ccc(S(=O)(=O)O)cc1)c1ccc([n-]1)/C(c1ccc(S(=O)(=O)O)cc1)=c1/cc/c([nH]1)=C(\c1ccc(S(=O)(=O)O)cc1)c1ccc([n-]1)/C=2c1ccc(S(=O)(=O)O)cc1.O.O=S(=O)(O)C(F)(F)F.[Cu+2]` the survivor count [1] was 3 of 10 on day 20.
In the case of `CC(C)NCC(O)COc1cccc2ccccc12` (stereo not given), the T/C (dose: 16.0 mg/kg/injection, schedule: Q07DX002 (ip), vehicle: Klucel (hydroxypropylcellulose) (HPC)) is reported as 133 % of control and the T/C (dose: 32.0 mg/kg/injection, schedule: Q07DX002 (ip), vehicle: Klucel (hydroxypropylcellulose) (HPC)) is reported as 144 % of control.
